In the supplement of paper PMC10849652:
The other results are listed elsewhere or left out.

By UniProt entry, the sequences of proteins in these tests, tags left out. Where a name states a change or a piece, a line headed by the entry shows the natural chain unless it says otherwise.
UniProt P78332: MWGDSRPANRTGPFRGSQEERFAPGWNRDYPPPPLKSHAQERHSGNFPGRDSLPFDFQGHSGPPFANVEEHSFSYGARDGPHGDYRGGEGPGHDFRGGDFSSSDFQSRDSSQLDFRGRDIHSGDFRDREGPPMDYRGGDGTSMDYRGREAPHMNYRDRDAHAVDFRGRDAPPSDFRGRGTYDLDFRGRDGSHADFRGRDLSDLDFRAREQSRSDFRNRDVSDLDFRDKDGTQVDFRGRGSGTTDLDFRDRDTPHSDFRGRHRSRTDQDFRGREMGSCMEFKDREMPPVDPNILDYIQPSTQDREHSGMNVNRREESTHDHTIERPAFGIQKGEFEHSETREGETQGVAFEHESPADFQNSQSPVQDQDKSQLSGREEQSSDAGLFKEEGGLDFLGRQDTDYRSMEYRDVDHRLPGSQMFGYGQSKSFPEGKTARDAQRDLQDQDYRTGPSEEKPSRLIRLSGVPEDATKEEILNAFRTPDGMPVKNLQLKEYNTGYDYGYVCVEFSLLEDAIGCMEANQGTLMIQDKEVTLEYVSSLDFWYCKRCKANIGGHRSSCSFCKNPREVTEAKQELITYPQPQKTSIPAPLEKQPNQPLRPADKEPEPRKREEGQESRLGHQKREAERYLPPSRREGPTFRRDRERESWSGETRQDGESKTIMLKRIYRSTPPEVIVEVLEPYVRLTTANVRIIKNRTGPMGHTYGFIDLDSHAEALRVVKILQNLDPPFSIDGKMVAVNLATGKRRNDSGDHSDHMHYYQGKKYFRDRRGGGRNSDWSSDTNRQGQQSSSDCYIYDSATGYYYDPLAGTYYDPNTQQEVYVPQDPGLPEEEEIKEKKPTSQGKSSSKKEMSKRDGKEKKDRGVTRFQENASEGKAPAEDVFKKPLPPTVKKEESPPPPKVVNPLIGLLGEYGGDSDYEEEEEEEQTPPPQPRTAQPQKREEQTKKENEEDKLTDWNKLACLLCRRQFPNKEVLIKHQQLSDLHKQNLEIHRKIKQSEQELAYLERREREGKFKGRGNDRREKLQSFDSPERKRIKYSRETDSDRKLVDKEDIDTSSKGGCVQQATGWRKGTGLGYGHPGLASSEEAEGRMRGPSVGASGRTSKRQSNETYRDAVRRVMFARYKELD
UniProt Q8NBN7: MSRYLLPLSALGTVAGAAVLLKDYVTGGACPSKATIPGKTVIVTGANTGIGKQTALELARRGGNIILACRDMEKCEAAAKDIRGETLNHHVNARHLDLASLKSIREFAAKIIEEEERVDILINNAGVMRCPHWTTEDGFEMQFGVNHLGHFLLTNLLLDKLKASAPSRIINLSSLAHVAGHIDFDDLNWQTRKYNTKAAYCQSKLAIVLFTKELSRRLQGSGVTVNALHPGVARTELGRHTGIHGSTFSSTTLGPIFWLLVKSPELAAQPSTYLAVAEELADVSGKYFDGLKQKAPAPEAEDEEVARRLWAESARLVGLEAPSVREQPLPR
UniProt Q96I51, whole entry, looked up: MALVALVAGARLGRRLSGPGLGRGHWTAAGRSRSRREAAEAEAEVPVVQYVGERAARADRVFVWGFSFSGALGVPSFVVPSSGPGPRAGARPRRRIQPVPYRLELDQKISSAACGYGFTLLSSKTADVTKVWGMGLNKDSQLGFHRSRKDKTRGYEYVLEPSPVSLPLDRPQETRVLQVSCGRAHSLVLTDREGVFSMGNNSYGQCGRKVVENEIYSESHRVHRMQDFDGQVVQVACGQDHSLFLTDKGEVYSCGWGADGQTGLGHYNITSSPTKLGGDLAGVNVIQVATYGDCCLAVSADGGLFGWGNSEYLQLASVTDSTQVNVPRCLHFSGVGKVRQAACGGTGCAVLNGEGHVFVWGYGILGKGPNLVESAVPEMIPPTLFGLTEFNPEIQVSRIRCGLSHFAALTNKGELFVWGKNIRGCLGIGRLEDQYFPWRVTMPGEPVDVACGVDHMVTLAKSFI
UniProt Q96D71: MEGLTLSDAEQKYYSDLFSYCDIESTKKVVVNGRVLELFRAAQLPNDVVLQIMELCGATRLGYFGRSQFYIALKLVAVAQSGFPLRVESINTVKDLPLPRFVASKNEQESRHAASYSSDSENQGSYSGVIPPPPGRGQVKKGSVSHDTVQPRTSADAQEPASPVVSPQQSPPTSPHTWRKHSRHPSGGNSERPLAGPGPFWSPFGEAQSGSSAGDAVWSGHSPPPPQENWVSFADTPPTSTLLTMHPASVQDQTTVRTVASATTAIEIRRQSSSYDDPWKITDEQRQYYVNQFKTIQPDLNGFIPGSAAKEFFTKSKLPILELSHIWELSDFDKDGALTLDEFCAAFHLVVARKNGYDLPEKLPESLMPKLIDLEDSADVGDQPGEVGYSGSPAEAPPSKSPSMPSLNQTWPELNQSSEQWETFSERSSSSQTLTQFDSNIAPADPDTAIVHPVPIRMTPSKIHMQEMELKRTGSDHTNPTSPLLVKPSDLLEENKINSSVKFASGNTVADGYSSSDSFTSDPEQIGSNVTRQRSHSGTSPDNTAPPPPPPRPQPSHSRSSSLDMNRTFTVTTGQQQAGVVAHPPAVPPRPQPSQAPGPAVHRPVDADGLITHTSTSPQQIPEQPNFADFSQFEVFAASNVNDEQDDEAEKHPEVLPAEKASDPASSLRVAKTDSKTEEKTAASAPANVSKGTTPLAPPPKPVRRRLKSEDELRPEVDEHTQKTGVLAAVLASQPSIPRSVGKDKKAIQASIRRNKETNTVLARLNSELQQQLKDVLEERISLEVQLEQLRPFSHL
UniProt A6NED2: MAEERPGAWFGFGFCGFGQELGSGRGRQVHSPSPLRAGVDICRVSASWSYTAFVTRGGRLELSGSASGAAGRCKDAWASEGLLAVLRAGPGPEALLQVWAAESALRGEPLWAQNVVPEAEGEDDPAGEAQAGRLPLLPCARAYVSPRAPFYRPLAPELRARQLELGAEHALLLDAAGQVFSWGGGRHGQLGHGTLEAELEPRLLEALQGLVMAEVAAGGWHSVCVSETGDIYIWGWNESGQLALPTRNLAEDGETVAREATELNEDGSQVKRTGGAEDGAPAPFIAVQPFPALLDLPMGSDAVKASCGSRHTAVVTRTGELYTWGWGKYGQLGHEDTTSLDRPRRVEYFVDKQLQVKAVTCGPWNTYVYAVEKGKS
UniProt Q99708: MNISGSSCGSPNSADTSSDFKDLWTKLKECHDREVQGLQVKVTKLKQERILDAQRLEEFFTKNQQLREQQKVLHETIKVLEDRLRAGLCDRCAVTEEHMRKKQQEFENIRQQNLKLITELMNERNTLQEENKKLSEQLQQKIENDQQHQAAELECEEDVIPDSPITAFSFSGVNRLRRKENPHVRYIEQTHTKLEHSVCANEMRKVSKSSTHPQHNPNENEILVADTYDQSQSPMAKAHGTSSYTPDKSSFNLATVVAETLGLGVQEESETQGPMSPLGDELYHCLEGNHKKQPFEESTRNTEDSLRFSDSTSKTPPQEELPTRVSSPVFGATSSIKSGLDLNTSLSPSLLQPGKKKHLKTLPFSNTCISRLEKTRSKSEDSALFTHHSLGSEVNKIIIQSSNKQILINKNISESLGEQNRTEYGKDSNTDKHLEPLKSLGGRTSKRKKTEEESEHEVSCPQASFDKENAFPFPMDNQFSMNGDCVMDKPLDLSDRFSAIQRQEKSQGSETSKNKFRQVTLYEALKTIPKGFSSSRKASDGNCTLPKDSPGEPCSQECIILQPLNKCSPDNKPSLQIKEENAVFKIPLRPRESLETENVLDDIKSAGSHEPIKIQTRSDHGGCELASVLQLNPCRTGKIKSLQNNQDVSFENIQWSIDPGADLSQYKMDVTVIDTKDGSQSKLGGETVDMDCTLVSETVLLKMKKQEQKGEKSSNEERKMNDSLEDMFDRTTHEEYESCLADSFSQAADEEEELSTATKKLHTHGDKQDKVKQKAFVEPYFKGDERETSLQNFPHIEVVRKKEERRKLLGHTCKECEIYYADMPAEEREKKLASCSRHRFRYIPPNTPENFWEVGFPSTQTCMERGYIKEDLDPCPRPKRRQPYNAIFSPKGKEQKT
UniProt O94762: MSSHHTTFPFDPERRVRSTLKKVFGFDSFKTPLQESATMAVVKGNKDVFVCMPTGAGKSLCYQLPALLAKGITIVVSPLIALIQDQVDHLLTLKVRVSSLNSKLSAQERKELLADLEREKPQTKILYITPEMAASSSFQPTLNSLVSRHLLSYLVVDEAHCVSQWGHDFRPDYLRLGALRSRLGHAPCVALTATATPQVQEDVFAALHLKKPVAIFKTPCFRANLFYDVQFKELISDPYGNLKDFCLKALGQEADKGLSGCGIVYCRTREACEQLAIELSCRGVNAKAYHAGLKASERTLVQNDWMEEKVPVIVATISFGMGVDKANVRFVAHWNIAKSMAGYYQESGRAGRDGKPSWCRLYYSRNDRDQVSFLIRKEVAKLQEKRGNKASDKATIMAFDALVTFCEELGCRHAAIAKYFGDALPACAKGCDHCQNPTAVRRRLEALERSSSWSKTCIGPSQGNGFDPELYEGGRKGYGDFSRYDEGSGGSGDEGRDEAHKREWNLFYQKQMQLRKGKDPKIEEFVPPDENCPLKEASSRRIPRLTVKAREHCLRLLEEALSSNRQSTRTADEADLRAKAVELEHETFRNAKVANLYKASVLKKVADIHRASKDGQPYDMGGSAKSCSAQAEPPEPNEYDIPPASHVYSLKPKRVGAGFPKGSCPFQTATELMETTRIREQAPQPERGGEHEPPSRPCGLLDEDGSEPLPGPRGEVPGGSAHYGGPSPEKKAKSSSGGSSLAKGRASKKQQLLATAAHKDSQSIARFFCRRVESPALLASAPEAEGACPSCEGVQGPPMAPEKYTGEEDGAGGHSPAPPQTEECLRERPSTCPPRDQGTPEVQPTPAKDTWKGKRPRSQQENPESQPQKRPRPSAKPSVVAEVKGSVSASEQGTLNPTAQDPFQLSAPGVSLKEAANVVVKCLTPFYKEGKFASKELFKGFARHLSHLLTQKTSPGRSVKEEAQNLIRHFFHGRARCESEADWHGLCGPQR
UniProt Q9GZR2: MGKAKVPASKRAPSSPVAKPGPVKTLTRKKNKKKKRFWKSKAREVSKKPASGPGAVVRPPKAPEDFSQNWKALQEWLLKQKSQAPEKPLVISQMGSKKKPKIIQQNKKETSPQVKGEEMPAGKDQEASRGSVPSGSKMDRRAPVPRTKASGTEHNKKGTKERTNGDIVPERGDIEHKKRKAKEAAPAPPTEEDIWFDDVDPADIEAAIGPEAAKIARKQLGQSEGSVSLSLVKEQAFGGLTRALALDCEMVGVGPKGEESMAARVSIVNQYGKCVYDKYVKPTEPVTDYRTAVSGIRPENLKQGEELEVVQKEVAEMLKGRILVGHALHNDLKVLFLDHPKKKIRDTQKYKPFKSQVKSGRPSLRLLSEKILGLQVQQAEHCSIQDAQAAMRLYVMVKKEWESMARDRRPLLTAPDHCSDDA
UniProt Q96HR9: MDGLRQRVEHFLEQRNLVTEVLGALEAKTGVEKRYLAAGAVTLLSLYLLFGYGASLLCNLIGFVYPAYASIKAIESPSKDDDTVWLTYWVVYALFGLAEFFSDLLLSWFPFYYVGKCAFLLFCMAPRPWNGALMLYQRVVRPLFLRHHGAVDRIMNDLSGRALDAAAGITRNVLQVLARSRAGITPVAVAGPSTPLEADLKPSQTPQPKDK
UniProt Q9H1K0: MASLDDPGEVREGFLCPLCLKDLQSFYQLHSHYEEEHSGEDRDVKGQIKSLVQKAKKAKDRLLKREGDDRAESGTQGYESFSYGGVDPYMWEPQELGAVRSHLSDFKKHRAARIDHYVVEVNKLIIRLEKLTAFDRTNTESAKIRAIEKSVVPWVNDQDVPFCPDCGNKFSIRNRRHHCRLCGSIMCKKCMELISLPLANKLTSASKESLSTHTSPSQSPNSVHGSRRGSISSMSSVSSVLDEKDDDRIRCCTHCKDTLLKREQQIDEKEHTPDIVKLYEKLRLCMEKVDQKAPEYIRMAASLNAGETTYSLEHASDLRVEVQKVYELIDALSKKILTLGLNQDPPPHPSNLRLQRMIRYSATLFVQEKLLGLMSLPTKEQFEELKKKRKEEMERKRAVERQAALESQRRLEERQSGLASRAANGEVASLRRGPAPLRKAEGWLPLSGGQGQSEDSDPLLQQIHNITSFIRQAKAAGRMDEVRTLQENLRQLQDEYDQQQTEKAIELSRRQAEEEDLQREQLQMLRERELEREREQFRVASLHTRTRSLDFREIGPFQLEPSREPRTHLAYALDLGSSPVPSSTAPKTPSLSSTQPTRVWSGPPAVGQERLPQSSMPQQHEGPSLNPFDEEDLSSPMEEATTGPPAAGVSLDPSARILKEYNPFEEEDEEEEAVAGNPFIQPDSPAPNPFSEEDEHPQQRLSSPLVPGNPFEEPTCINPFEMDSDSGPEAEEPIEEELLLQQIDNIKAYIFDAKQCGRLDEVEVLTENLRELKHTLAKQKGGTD

Columns and labels:
Assay in all cases: log2 fold change, soluble protein after heating vs DMSO (PISA); higher = thermal stabilisation; K562 lysate, 10 uM; active = over 0.2 and 3.5 SD of the protein, either way, in both replicates (recomputed)
erlotinib = compound: C#Cc1cccc(Nc2ncnc3cc(OCCOC)c(OCCOC)cc23)c1 [erlotinib]
How it was run: (§1)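 Quantification was by TMTpro 16plex LC-MS/MS with equalised channel sums, applied to the supernatant after 21,000xg for 90 min. Samples were crude K562 extract at 1 mg/mL protein in PBS pH 7.4 with 1 mM MgCl2, treated with 10 μM compound for 30 min, heated for 3 min across 48°C-58°C, pooled and brought to 0.5% NP-40 at 4°C. Values are log-two fold changes in thermal stability relative to solvent controls, from duplicates.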

[1] = compound: C/C(=N\NC(=O)C1=CC(=CC=C1)S(=O)(=O)N2CCOCC2)/C3=C(C=CC(=C3)Cl)O
How it was run: as §1

[2] = compound: C1=CC(=CC=C1C2=NC3=C(N2)C=C(C=C3)C(=O)N)OC4=CC=C(C=C4)Cl
How it was run: as §1

[3] = compound: C1=CC2=C(C=CC(=C2)/C=C\3/C(=O)NC(=NCC4=CC=CS4)S3)N=C1
How it was run: as §1

[4] = compound: C1=CC2=NC=CN=C2C=C1/C=C/3\C(=O)NC(=O)S3
How it was run: as §1

[5] = compound: C1=CC=C(C=C1)C2=NC(=C(N2)C3=CC=NC=C3)C4=CC(=C(C=C4)Cl)O
How it was run: as §1

[6] = compound: C1=CC=C2C(=C1)C3=NNC4=CC=CC(=C43)C2=O
How it was run: as §1

[7] = compound: C1CCN(C1)C(=O)NC2=CC=CC(=C2)NC3=NC=C(C(=N3)NCCC4=CN=CN4)Br
How it was run: as §1

[8] = compound: C1CN(CCC1(CC2=CC=C(C=C2)Cl)N)C3=NC=NC4=C3C=CN4
How it was run: as §1

IRAK-1-4 Inhibitor I = compound: C1COCCN1CCN2C3=CC=CC=C3N=C2NC(=O)C4=CC(=CC=C4)[N+](=O)[O-] [IRAK-1-4 Inhibitor I]
How it was run: as §1

ibrutinib = compound: C=CC(=O)N1CCC[C@@H](n2nc(-c3ccc(Oc4ccccc4)cc3)c3c(N)ncnc32)C1 [ibrutinib]
How it was run: as §1

[9] = compound: CC(=O)c1cnc2ccc(-c3cc(Cl)c(O)c(Cl)c3)nc2c1N[C@H]1CC[C@H](CN(C)C)CC1
How it was run: as §1

ralimetinib = compound: CC(C)(C)Cn1c(N)nc2ccc(-c3[nH]c(C(C)(C)C)nc3-c3ccc(F)cc3)nc21 [ralimetinib]
How it was run: as §1

[10] = compound: CC(C)(O)CC(=O)NCCn1ccc2ncnc(Nc3ccc(Oc4cccc(C(F)(F)F)c4)c(Cl)c3)c21
How it was run: as §1

[11] = compound: CC(C)C1=C2N=C(C=C(N2N=C1)NCC3=CC=CC=C3)NCCCCCCN
How it was run: as §1

[12] = compound: CC1=C(C(CC(=O)N1)C2=CC=C(C=C2)C(F)(F)F)C(=O)NC3=C(C=C4C(=C3)C=NN4)F
How it was run: as §1

[13] = compound: CC1=C(C2=C(C=C1)C(=O)C3=CC=CC=C3N2CCCN)C
How it was run: as §1

[14] = compound: CC1=C(C=C(C=C1)NC(=O)C2=CC(=CC=C2)C(C)(C)C#N)NC3=CC4=C(C=C3)N=CN(C4=O)C
How it was run: as §1

[15] = compound: CC1=C(C=C(C=C1)NC(=O)C2=CC(=CC=C2)N(C)C)NC(=O)C3=CC=C(C=C3)O
How it was run: as §1

[16] = compound: CC1=CC=C(C=C1)SC2=C3C=C(SC3=CN=C2)C(=O)N
How it was run: as §1

| Target | log2 fold change (erlotinib) | log2 fold change [1] | log2 fold change [2] | log2 fold change [3] | log2 fold change [4] | log2 fold change [5] | log2 fold change [6] | log2 fold change [7] | log2 fold change [8] | log2 fold change (IRAK-1-4 Inhibitor I) | log2 fold change (ibrutinib) | log2 fold change [9] | log2 fold change (ralimetinib) | log2 fold change [10] | log2 fold change [11] | log2 fold change [12] | log2 fold change [13] | log2 fold change [14] | log2 fold change [15] | log2 fold change [16] |
| --- | --- | --- | --- | --- | --- | --- | --- | --- | --- | --- | --- | --- | --- | --- | --- | --- | --- | --- | --- | --- |
| RBM6 (UniProt P78332) | inactive: -0.005 | inactive: 0.042 | inactive: 0.082 | inactive: -0.017 | inactive: -0.063 | inactive: 0.054 | inactive: -0.07 | inactive: -0.002 | inactive: 0.009 | inactive: -0.006 | inactive: -0.001 | inactive: -0.054 | inactive: 0.01 | inactive: -0.043 | inactive: -0.001 | inactive: -0.025 | inactive: -0.009 | inactive: -0.002 | inactive: -0.071 | inactive: 0.116 |
| RHEB (UniProt Q15382) | inactive: -0.009 | inactive: -0.073 | inactive: -0.037 | inactive: 0.035 | inactive: 0 | inactive: -0.012 | inactive: 0.029 | inactive: -0.02 | inactive: -0.075 | inactive: -0.032 | inactive: 0.024 | inactive: 0.03 | inactive: 0.065 | inactive: 0.048 | inactive: 0.008 | inactive: -0.01 | inactive: 0.003 | inactive: -0.018 | inactive: -0.001 | inactive: 0.003 |
| RB1CC1 (UniProt Q8TDY2) | inactive: 0.008 | inactive: -0.004 | inactive: 0.008 | inactive: 0 | inactive: -0.013 | inactive: -0.009 | inactive: -0.05 | inactive: 0.003 | inactive: 0.031 | inactive: -0.007 | inactive: 0.012 | inactive: -0.026 | inactive: -0.012 | inactive: -0.029 | inactive: -0.003 | inactive: 0.001 | inactive: -0.019 | inactive: 0.014 | inactive: 0.048 | inactive: -0.014 |
| RBBP7 isoform 2 (UniProt Q16576) | inactive: -0.036 | inactive: 0.046 | inactive: -0.036 | inactive: -0.03 | inactive: -0.013 | inactive: -0.002 | inactive: 0.055 | inactive: 0.041 | inactive: -0.026 | inactive: -0.006 | inactive: 0.016 | inactive: 0.043 | inactive: 0.062 | inactive: 0.042 | inactive: -0.028 | inactive: -0.029 | inactive: 0.011 | inactive: -0.002 | inactive: -0.001 | inactive: 0.034 |
| RDH13 (UniProt Q8NBN7) | inactive: 0.014 | inactive: -0.064 | inactive: -0.155 | inactive: -0.074 | inactive: 0.052 | inactive: 0.003 | inactive: 0.04 | inactive: -0.052 | inactive: -0.003 | inactive: 0.012 | inactive: -0.01 | inactive: -0.01 | inactive: 0.011 | inactive: -0.102 | inactive: -0.041 | inactive: 0.023 | inactive: -0.005 | inactive: 0.005 | inactive: 0 | inactive: 0.056 |
| RDX (UniProt P35241) | inactive: -0.013 | inactive: 0.017 | inactive: 0.014 | inactive: -0.023 | inactive: -0.032 | inactive: 0.018 | inactive: -0.009 | inactive: 0.012 | inactive: -0.025 | inactive: 0.006 | inactive: -0.051 | inactive: 0 | inactive: -0.003 | inactive: 0.002 | inactive: 0.012 | inactive: -0.016 | inactive: -0.011 | inactive: -0.021 | inactive: -0.002 | inactive: -0.004 |
| RCC1L (UniProt Q96I51) | inactive: -0.047 | inactive: -0.085 | inactive: 0.003 | inactive: -0.159 | inactive: 0.057 | inactive: -0.015 | inactive: -0.015 | inactive: 0.039 | inactive: -0.088 | inactive: -0.05 | inactive: -0.018 | inactive: -0.016 | inactive: 0.059 | inactive: 0.014 | inactive: -0.016 | inactive: -0.006 | inactive: -0.026 | inactive: -0.016 | inactive: -0.002 | inactive: 0.009 |
| REPS1 (UniProt Q96D71) | inactive: -0.015 | inactive: 0.003 | inactive: 0.014 | inactive: -0.021 | inactive: -0.036 | inactive: -0.018 | inactive: -0.086 | inactive: -0.055 | inactive: -0.028 | inactive: 0.014 | inactive: -0.02 | inactive: -0.009 | inactive: 0.006 | inactive: -0.068 | inactive: 0.003 | inactive: -0.011 | inactive: -0.014 | inactive: 0.027 | inactive: 0.015 | inactive: 0.003 |
| RCCD1 (UniProt A6NED2) | inactive: 0.082 | inactive: -0.097 | inactive: 0.037 | inactive: 0 | inactive: -0.015 | inactive: -0.076 | inactive: 0.091 | inactive: 0.067 | inactive: 0.068 | inactive: -0.017 | inactive: 0.016 | inactive: 0.014 | inactive: 0.014 | inactive: -0.018 | inactive: -0.012 | inactive: 0.035 | inactive: 0.015 | inactive: 0.024 | inactive: 0.033 | inactive: -0.002 |
| RBBP8 isoform 2 (UniProt Q99708) | inactive: 0.073 | inactive: -0.129 | inactive: -0.031 | inactive: 0.074 | active: 0.295 | inactive: -0.004 | inactive: -0.019 | inactive: -0.017 | inactive: -0.032 | inactive: 0.033 | inactive: -0.204 | inactive: 0.005 | inactive: -0.086 | inactive: 0.011 | inactive: -0.006 | inactive: 0.003 | inactive: -0.018 | inactive: -0.066 | inactive: -0.006 | inactive: -0.143 |
| RECQL5 (UniProt O94762) | inactive: 0.046 | inactive: -0.093 | inactive: 0.282 | inactive: 0.083 | inactive: 0.005 | inactive: -0.002 | inactive: 0.012 | inactive: -0.062 | inactive: 0.036 | inactive: 0.006 | inactive: 0.014 | inactive: -0.335 | inactive: 0.035 | inactive: -0.015 | inactive: 0.055 | inactive: 0.03 | inactive: -0.066 | inactive: -0.044 | inactive: 0.035 | inactive: -0.001 |
| REXO4 (UniProt Q9GZR2) | inactive: -0.041 | inactive: -0.195 | inactive: -0.041 | inactive: -0.084 | inactive: -0.052 | inactive: 0.027 | inactive: -0.033 | inactive: -0.022 | inactive: 0.003 | inactive: -0.027 | inactive: 0.014 | inactive: 0.027 | inactive: 0.021 | inactive: 0.074 | inactive: -0.024 | inactive: 0.023 | inactive: -0.053 | inactive: -0.043 | inactive: 0.056 | inactive: 0.008 |
| REEP6 (UniProt Q96HR9) | inactive: -0.023 | inactive: -0.026 | inactive: 0.008 | inactive: 0.077 | inactive: -0.06 | inactive: -0.029 | inactive: -0.069 | inactive: 0.021 | inactive: -0.022 | inactive: -0.05 | inactive: -0.026 | inactive: -0.026 | inactive: 0.018 | inactive: -0.029 | inactive: -0.067 | inactive: -0.006 | inactive: -0.066 | inactive: 0.084 | inactive: 0.055 | inactive: 0.038 |
| RBSN (UniProt Q9H1K0) | inactive: -0.067 | inactive: -0.215 | inactive: 0.004 | inactive: -0.014 | inactive: -0.004 | inactive: 0.005 | inactive: 0.043 | inactive: 0.015 | inactive: 0.063 | inactive: 0.025 | inactive: 0.018 | inactive: 0.043 | inactive: -0.014 | inactive: -0.007 | inactive: 0.043 | inactive: 0.025 | inactive: -0.032 | inactive: 0.044 | inactive: 0.003 | inactive: 0.035 |
| RAPGEF5, A0A590UJR0 | inactive: -0.118 | inactive: 0.006 | inactive: 0.071 | inactive: -0.163 | inactive: -0.199 | inactive: 0.043 | inactive: -0.028 | inactive: -0.049 | inactive: -0.022 | inactive: 0.08 | inactive: 0.028 | inactive: -0.031 | inactive: -0.023 | inactive: -0.049 | inactive: -0.372 | inactive: -0.287 | inactive: 0.01 | inactive: 0.056 | inactive: -0.025 | inactive: 0.049 |
| RBL1 (UniProt P28749) | inactive: 0.088 | inactive: 0.084 | inactive: 0.033 | inactive: 0.07 | inactive: 0.039 | inactive: -0.01 | inactive: -0.054 | inactive: -0.044 | inactive: 0.076 | inactive: -0.017 | inactive: -0.001 | inactive: -0.031 | inactive: 0.117 | inactive: -0.01 | inactive: 0.009 | inactive: 0.181 | inactive: -0.081 | inactive: 0.024 | inactive: 0.031 | inactive: -0.07 |

Part of the list above with just log2 fold change [8].
Target | log2 fold change [8]
RBBP7 isoform 2 (UniProt Q16576) | inactive: -0.026
RCCD1 (UniProt A6NED2) | inactive: 0.068
